According to the supplement of paper PMC10735217:
Counter-ions that a name gives are not always drawn. The list shows a part of the results. Repeats in this data set agree poorly, so a single value says little.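 In a drug-repurposing library screen, luminescence reads luciferase driven by eight TEAD-binding elements, stably integrated into human kidney-derived cells. Compounds scoring over five robust Z scores above the plate mean are called hits.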

Test system: HEK293A TEAD-LUC reporter
Test: TEAD-luciferase reporter activity (YAP activation), robust Z score vs plate; higher = stronger YAP/TEAD activation
Details: 24 h

SMILES | TEAD-luciferase reporter activity (compound concentration: 200 nM) | TEAD-luciferase reporter activity (compound concentration: 2 uM) | TEAD-luciferase reporter activity (compound concentration: 10 uM)
CCOC(=O)C1(c2ccccc2)CCN(C)CC1 [Pethidine hydrochloride] | inactive: -0.221 | inactive: -1.51 | inactive: 0.847
CC(C)Cc1ccc(C(C)C(=O)Oc2cccc(C3(O)CCCCC3CN(C)C)c2)cc1 (stereo not given) | inactive: -0.802 | inactive: -0.5 | inactive: 0.0644
CC(C)C1C(=O)NC(=S)NC1=O | inactive: 2.27 | inactive: -0.606 | inactive: 1.94
COc1cc([C@@H]2c3cc4c(cc3[C@H](O)[C@H]3COC(=O)[C@H]23)OCO4)cc(OC)c1OC [Podofilox] | inactive: 0.189 | inactive: 4.79 | inactive: 3.31
C[C@]12C=CC(=O)C=C1CC[C@@H]1[C@@H]2CC[C@]2(C)C(=O)CC[C@@H]12 | – | inactive: 3.9 | –
CC(C)NCC(O)c1ccc([N+](=O)[O-])cc1 (stereo not given) [nifenalol] | inactive: 0.206 | inactive: -1.38 | inactive: 1.39
COc1ccc2c(c1)CN(C)CC2c1ccc(Cl)c(Cl)c1 (stereo not given) [diclofensine] | inactive: 1.8 | inactive: -1.2 | inactive: 1.21
CC(=O)OCC(=O)[C@H]1CC[C@H]2[C@@H]3CC[C@H]4C[C@H](O)CCC4(C)[C@H]3C(=O)CC12C (stereo not given in full) | inactive: -0.487 | inactive: -0.57 | inactive: -1.32
Clc1ccc(C2CC3CCCC2N3)cn1 (stereo not given) | inactive: -1.28 | inactive: 0.144 | inactive: 0.963
COc1cc(OC2CCN(Cc3ccc[n+]([O-])c3C)CC2)ccc1C(=O)N1CCC(N2C(=O)OCc3ccccc32)CC1 | inactive: -0.836 | inactive: -0.239 | inactive: -0.429
CN1CC[C@]2(C)C[C@@H](Cc3ccc(O)cc32)C1 | inactive: -1.37 | inactive: -1.18 | inactive: -1.43
O=C(c1ccccc1)N1CCC(C(=O)O)(c2ccccc2)CC1 | inactive: -0.601 | – | –
NC(/N=N/C(N)=N/Cl)=N\Cl | inactive: -1.02 | inactive: -1.62 | inactive: 4.27
CCCCCCC1C(=O)O[C@H](C)[C@H](NC(=O)c2cccc(NC=O)c2O)C(=O)O[C@@H](C)[C@@H]1OC(=O)CC(C)C (stereo not given in full) [Antimycin A] | inactive: 4.88 | inactive: -1.33 | inactive: 0.808
NC[C@H](O)c1ccccc1 [(R)-2-Amino-1-phenylethanol] | inactive: -0.636 | inactive: 1.51 | inactive: -1.15
CCN(CC)[C@H](C)[C@@H](O)c1ccccc1 | inactive: 2.36 | inactive: -1.72 | inactive: 1.75
N[C@@H](Cc1cc(Br)c(O)c(Br)c1)C(=O)O | inactive: -1.32 | inactive: -1.26 | active: 11.4
CC(C)(C)c1ccc(CSc2cnn(C(C)(C)C)c(=O)c2Cl)cc1 | inactive: -1.13 | inactive: -0.0855 | inactive: -0.172

Entries of single compounds from above. Values in the order: TEAD-luciferase reporter activity (compound concentration: 200 nM) | TEAD-luciferase reporter activity (compound concentration: 2 uM) | TEAD-luciferase reporter activity (compound concentration: 10 uM)
Clc1ccc(C2CC3CCCC2N3)cn1 (stereo not given) as listed: inactive: -1.28 | inactive: 0.144 | inactive: 0.963
CC(=O)OCC(=O)[C@H]1CC[C@H]2[C@@H]3CC[C@H]4C[C@H](O)CCC4(C)[C@H]3C(=O)CC12C (stereo not given in full) as listed: inactive: -0.487 | inactive: -0.57 | inactive: -1.32
